# The supplement of paper PMC8728848
# Some of the results follow.
# B1: MXA PilAct-eGFP (Myxococcus xanthus), Q59589 (protein)
# chain: MRVSRFNPRNRGFTLIELMIVVAIIGILAAIAIPNFIKFQARSKQSEAKTNLKALYTAQKSFFSEKDRYSDFANEIGFAPERGNRYGYRVSAAAGDCEVRNAADLPVPAAGVPCISNDSFRFGANSAIDDPTPVVARFVPQGAAGWNTTLGVQPTIADCPNCNFFAGARGNADNEATFDDWVIAGFEGSGQVGPCSEAGNVASGTPYNTRNDVACDGAAQ
# Tests used:
# Test in all cases: glycan array binding signal (z-score within array); higher = stronger binding
# Conditions in all cases: glycan notation: IUPAC condensed, linker removed
# [1] = target: Gal(b1-4)GlcNAc(b1-3)Gal(b1-4)GlcNAc(b1-6)[Gal(b1-3)]GalNAc
# Summary of the method: (§1)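 Arrays were curated from the Consortium for Functional Glycomics database, 3228 in total, and kept only where the protein sequence was available. Binding is expressed as a within-array Z-score. This score was averaged across arrays of the same protein sequence at different concentrations or buffers and across linkers, and negative values can be read as non-binding.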
# [2] = target: Gal(b1-4)GlcNAc(b1-3)Gal(b1-4)[Fuc(a1-3)]GlcNAc(b1-3)Gal(b1-4)[Fuc(a1-3)]GlcNAc
# Summary of the method: as §1
# [3] = target: Gal(b1-4)GlcNAc(b1-3)GalNAc
# Summary of the method: as §1
# [4] = target: Gal(b1-4)GlcNAc(b1-3)[Fuc(a1-3)GlcNAc(b1-6)]Gal(b1-4)Glc
# Summary of the method: as §1
# [5] = target: Gal(b1-4)GlcNAc(b1-3)[Gal(b1-4)GlcNAc(b1-6)]Gal(b1-4)GlcNAc
# Summary of the method: as §1
# [6] = target: Gal(b1-4)GlcNAc(b1-3)[GlcNAc(b1-6)]Gal(b1-4)GlcNAc
# Summary of the method: as §1
# [7] = target: Gal(b1-4)GlcNAc(b1-6)Gal(b1-4)GlcNAc
# Summary of the method: as §1
# [8] = target: Gal(b1-4)GlcNAc(b1-6)GalNAc
# Summary of the method: as §1
# [9] = target: Gal(b1-4)GlcNAc(b1-6)[Gal(b1-3)]GalNAc
# Summary of the method: as §1
# [10] = target: Gal(b1-4)GlcNAc(b1-6)[Gal(b1-4)GlcNAc(b1-3)]GalNAc
# Summary of the method: as §1
# Gal(b1-4)GlcNAc6P = target: Gal(b1-4)GlcNAc6P
# Summary of the method: as §1
# Gal(b1-6)Gal = target: Gal(b1-6)Gal
# Summary of the method: as §1
# Gal3S(b1-3)GalNAc = target: Gal3S(b1-3)GalNAc
# Summary of the method: as §1
# Gal3S(b1-3)GlcNAc = target: Gal3S(b1-3)GlcNAc
# Summary of the method: as §1
# [11] = target: Gal3S(b1-3)[Fuc(a1-4)]GlcNAc
# Summary of the method: as §1
# Gal3S(b1-4)Glc = target: Gal3S(b1-4)Glc
# Summary of the method: as §1
# Gal3S(b1-4)Glc6S = target: Gal3S(b1-4)Glc6S
# Summary of the method: as §1
# Gal3S(b1-4)GlcNAc = target: Gal3S(b1-4)GlcNAc
# Summary of the method: as §1
# [12] = target: Gal3S(b1-4)[Fuc(a1-3)]Glc6S
# Summary of the method: as §1
# [13] = target: Gal3S(b1-4)[Fuc(a1-3)]GlcNAc
# Summary of the method: as §1
# [14] = target: Gal3S(b1-4)[Fuc(a1-3)]GlcNAc6S
# Summary of the method: as §1
# Gal3S4S(b1-4)GlcNAc = target: Gal3S4S(b1-4)GlcNAc
# Summary of the method: as §1
# Gal3S6S(b1-4)GlcNAc = target: Gal3S6S(b1-4)GlcNAc
# Summary of the method: as §1
# Gal3S6S(b1-4)GlcNAc6S = target: Gal3S6S(b1-4)GlcNAc6S
# Summary of the method: as §1
# Gal4S(b1-4)GlcNAc = target: Gal4S(b1-4)GlcNAc
# Summary of the method: as §1
# Gal4S6S(b1-4)GlcNAc = target: Gal4S6S(b1-4)GlcNAc
# Summary of the method: as §1
# Gal6P(b1-4)GlcNAc = target: Gal6P(b1-4)GlcNAc
# Summary of the method: as §1
# Gal6S(b1-3)GlcNAc = target: Gal6S(b1-3)GlcNAc
# Summary of the method: as §1
# Gal6S(b1-3)GlcNAc6S = target: Gal6S(b1-3)GlcNAc6S
# Summary of the method: as §1
# Gal6S(b1-4)Glc = target: Gal6S(b1-4)Glc
# Summary of the method: as §1
# Gal6S(b1-4)Glc6S = target: Gal6S(b1-4)Glc6S
# Summary of the method: as §1
# Gal6S(b1-4)GlcNAc = target: Gal6S(b1-4)GlcNAc
# Summary of the method: as §1
# Gal6S(b1-4)GlcNAc6S = target: Gal6S(b1-4)GlcNAc6S
# Summary of the method: as §1
# GalNAc(a1-3)Gal = target: GalNAc(a1-3)Gal
# Summary of the method: as §1
# GalNAc(a1-3)GalNAc = target: GalNAc(a1-3)GalNAc
# Summary of the method: as §1
# [15] = target: GalNAc(a1-3)GalNAc(b1-3)Gal(a1-4)Gal(b1-4)Glc
# Summary of the method: as §1
# [16] = target: GalNAc(a1-3)GalNAc(b1-3)Gal(a1-4)Gal(b1-4)GlcNAc
# Summary of the method: as §1
# GalNAc(b1-3)Gal = target: GalNAc(b1-3)Gal
# Summary of the method: as §1
# [17] = target: GalNAc(b1-3)Gal(a1-4)Gal(b1-4)GlcNAc
# Summary of the method: as §1
# [18] = target: GalNAc(b1-3)Gal(a1-4)Gal(b1-4)GlcNAc(b1-3)Gal(b1-4)Glc
# Summary of the method: as §1
# [19] = target: GalNAc(b1-3)Gal(a1-6)Gal(b1-4)Glc
# Summary of the method: as §1
# GalNAc(b1-3)GalNAc = target: GalNAc(b1-3)GalNAc
# Summary of the method: as §1
# GalNAc(b1-3)GlcNAc = target: GalNAc(b1-3)GlcNAc
# Summary of the method: as §1
# GalNAc(b1-4)Gal(b1-4)Glc = target: GalNAc(b1-4)Gal(b1-4)Glc
# Summary of the method: as §1
# GalNAc(b1-4)GlcNAc = target: GalNAc(b1-4)GlcNAc
# Summary of the method: as §1
binder,measurement,setting,value
B1,glycan array binding signal (z-score),[1],0.001
same,glycan array binding signal (z-score),[2],0.697
same,glycan array binding signal (z-score),[3],-0.587
same,glycan array binding signal (z-score),[4],0.181
same,glycan array binding signal (z-score),[5],-0.851
same,glycan array binding signal (z-score),[6],-1.23
same,glycan array binding signal (z-score),[7],0.221
same,glycan array binding signal (z-score),[8],-0.215
same,glycan array binding signal (z-score),[9],-0.545
same,glycan array binding signal (z-score),[10],-0.011
same,glycan array binding signal (z-score),Gal(b1-4)GlcNAc6P,0.348
same,glycan array binding signal (z-score),Gal(b1-6)Gal,-0.751
same,glycan array binding signal (z-score),Gal3S(b1-3)GalNAc,-1.55
same,glycan array binding signal (z-score),Gal3S(b1-3)GlcNAc,0.122
same,glycan array binding signal (z-score),[11],-0.932
same,glycan array binding signal (z-score),Gal3S(b1-4)Glc,-0.945
same,glycan array binding signal (z-score),Gal3S(b1-4)Glc6S,-1.12
same,glycan array binding signal (z-score),Gal3S(b1-4)GlcNAc,-0.174
same,glycan array binding signal (z-score),[12],0.594
same,glycan array binding signal (z-score),[13],-0.03
same,glycan array binding signal (z-score),[14],-0.382
same,glycan array binding signal (z-score),Gal3S4S(b1-4)GlcNAc,-0.123
same,glycan array binding signal (z-score),Gal3S6S(b1-4)GlcNAc,-0.332
same,glycan array binding signal (z-score),Gal3S6S(b1-4)GlcNAc6S,0.757
same,glycan array binding signal (z-score),Gal4S(b1-4)GlcNAc,-0.022
same,glycan array binding signal (z-score),Gal4S6S(b1-4)GlcNAc,-0.445
same,glycan array binding signal (z-score),Gal6P(b1-4)GlcNAc,-0.421
same,glycan array binding signal (z-score),Gal6S(b1-3)GlcNAc,0.713
same,glycan array binding signal (z-score),Gal6S(b1-3)GlcNAc6S,0.261
same,glycan array binding signal (z-score),Gal6S(b1-4)Glc,1.64
same,glycan array binding signal (z-score),Gal6S(b1-4)Glc6S,-0.152
same,glycan array binding signal (z-score),Gal6S(b1-4)GlcNAc,-1.58
same,glycan array binding signal (z-score),Gal6S(b1-4)GlcNAc6S,-0.872
same,glycan array binding signal (z-score),GalNAc(a1-3)Gal,0.16
same,glycan array binding signal (z-score),GalNAc(a1-3)GalNAc,-1.12
same,glycan array binding signal (z-score),[15],-0.178
same,glycan array binding signal (z-score),[16],-0.666
same,glycan array binding signal (z-score),GalNAc(b1-3)Gal,-0.364
same,glycan array binding signal (z-score),[17],-0.519
same,glycan array binding signal (z-score),[18],-0.848
same,glycan array binding signal (z-score),[19],-0.469
same,glycan array binding signal (z-score),GalNAc(b1-3)GalNAc,-0.712
same,glycan array binding signal (z-score),GalNAc(b1-3)GlcNAc,-0.256
same,glycan array binding signal (z-score),GalNAc(b1-4)Gal(b1-4)Glc,-1.31
same,glycan array binding signal (z-score),GalNAc(b1-4)GlcNAc,0.621

# Exported as tab-separated lines: part of the list above
binder	measurement	setting	value
B1	glycan array binding signal (z-score)	Gal(b1-4)GlcNAc6P	0.348
same	glycan array binding signal (z-score)	Gal(b1-6)Gal	-0.751
same	glycan array binding signal (z-score)	Gal3S(b1-3)GalNAc	-1.55
